As usually defined, the AC50 is the concentration at which the activity in the assay is half-maximal.

Some of the results follow. Further columns of the screen follow, without active or inactive calls. Most of these compounds were active or inconclusive in the main read-out, so they are no random draw. Words in brackets tell the shape of the fitted curve; partial curves, single points and poor fits give uncertain potencies.

Here are results for 39 compounds from PubChem BioAssay AID445 (National Center for Advancing Translational Sciences (NCATS), 2006).

This assay can be described thus: IkB Signaling. The settings on record: ABC-DLBCL IkBa-CBG/CBR dual luciferase ratio (green luciferase fused to IkBa over red control in OCI-Ly3 lymphoma cells), 4 h; measured here: control luc red channel unless noted. The method in brief: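 Luminescence ratio of IκBα-fused green versus native red beetle luciferase in OCI-Ly3 cells, 4 h post-doxycycline with compound; red signal alone, scaled from basal (0%) to zero light (-100%), flagged nonspecific or cytotoxic effects.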
For the compound `CCOc1ccccc1-n1nnnc1SCC(=O)NC(=O)NCc1ccco1`, the half-maximal activity concentration (AC50) was 31.6 µM [falling, single point].
Next, `CCOC(=O)c1ccc2nc(NC(=O)c3cccs3)sc2c1`: 15.8 µM [falling, partial curve]; `Cc1ccc(Nc2c(-c3ccc(C)cc3)nc3c(C)cccn23)cc1`: 25.1 µM [falling, single point]; `O=C(NCCc1ccc(Cl)cc1)C(=O)NCC(c1cccs1)S(=O)(=O)c1ccccc1` (centres undefined): 3.16 µM [falling, partial curve].
With `N#Cc1cccc(NC(=O)COc2ccc(-n3ccnc3)cc2)c1` the figure was 31.6 µM [falling, partial curve]; with `O=S(=O)(c1ccccc1)N1CCN(CC(O)COc2ccc3c(c2)CCC3)CC1` (centres undefined), 15.8 µM [falling, partial curve].
With `CNC(=O)c1c(NC(=O)Cc2coc3ccc(OC)cc23)sc2c1CCCC2` the figure was 15.8 µM [falling, partial curve]; with `CC(C)Cc1cc(C(=O)Nc2ccc(F)cc2F)no1`, 5.01 µM [falling, partial curve].
With `Cc1ccc2oc(=O)c3cc(C(=O)NCCc4ccc(Cl)cc4)sc3c2c1`, the AC50 was 5.01 µM [rising, partial curve].
In the case of `CCS(=O)(=O)N1CCc2cc(C(=O)NCc3ccccc3Cl)ccc21`, the AC50 is 0.631 µM [falling, full curve].
For the compound `CCCCc1nn2c(=O)cc(COC(=O)c3ccccc3C)nc2s1`, the AC50 is 20 µM [falling, single point].
On to `COc1ccc(NC(=O)C(C(C)C)N2Cc3ccccc3C2=O)cc1` (centres undefined), for which the half-maximal activity concentration (AC50) was 10 µM [falling, partial curve].
Turning to `CCOc1ccccc1NS(=O)(=O)c1cc(-c2cnc(C3CC3)o2)ccc1C`, the half-maximal activity concentration (AC50) is 0.00631 µM [rising, full curve, poor fit].
For the compound `Cc1ccc(-n2nc3c(=O)n(C(C)C(=O)NCc4ccccc4C)nc(C)c3c2C)cc1` (centres undefined), the AC50 was 6.31 µM [falling, partial curve].
Next, `COc1ccccc1NC(=O)c1sc2nc3n(c(=O)c2c1C)N=C(c1cccc(Br)c1)CS3`: 0.251 µM [falling, full curve, poor fit]; `COc1ccc(OC)c(/C=C(\C#N)c2nc(-c3ccc(F)cc3)cs2)c1`: 31.6 µM [falling, single point].
Turning to `Nc1c(-c2nc(-c3ccc4c(c3)OCO4)cs2)c2ccccn2c1C(=O)c1ccc(Cl)cc1`, the concentration at half-maximal activity (AC50) was 3.16 µM [falling, partial curve].
With `CCOc1ccc(NC(=O)Cc2c[nH]c3ccccc23)cc1` the figure was 12.6 µM [falling, single point]; with `Cc1ccc(SCc2nc(-c3ccc(C(=O)NCC(C)c4ccccc4)cc3)oc2C)cc1` (centres undefined), 7.94 µM [falling, partial curve]; with `CCc1ccc(S(=O)(=O)c2nnn3c2nc(NCc2ccccc2)c2cc(Cl)ccc23)cc1`, 10 µM [falling, partial curve].
With `O=C(Nc1ccc(Cl)cc1)c1cc(S(=O)(=O)NC2CCCCCC2)ccc1F` the figure was 12.6 µM [falling, partial curve]; with `CCCNC(=O)C(Cc1ccccc1)NS(=O)(=O)c1ccc2c(c1)c(=O)n(C)c(=O)n2C` (centres undefined), 0.0126 µM [falling, full curve, poor fit].
For the compound `CCOc1ccc(C(=O)Nc2ccc3c(c2)OCCO3)cc1Br`, the half-maximal activity concentration (AC50) was 20 µM [falling, partial curve].
With `O=C(CN1CCN(Cc2ccccc2Cl)C1=O)NCCc1ccc(Cl)cc1`, the concentration at half-maximal activity (AC50) is 5.01 µM [falling, partial curve, poor fit].
In the case of `Cc1ccc(-c2csc3ncnc(Nc4ccc(C(=O)O)cc4)c23)cc1`, the concentration at half-maximal activity (AC50) was 5.01 µM [falling, partial curve].
As for `COc1cc(NS(=O)(=O)c2ccc(-c3cc(C)no3)cc2)cc(OC)c1`, the AC50 was 5.01 µM [falling, full curve].
As for `COc1ccccc1-c1nc2cc(NC(=O)c3ccccc3Cl)ccc2o1`, the half-maximal activity concentration (AC50) was 12.6 µM [falling, partial curve].
Next, `COc1cc(Br)cc(-c2nc3c(c(=O)[nH]c(=O)n3Cc3ccccc3)n2C)c1O`: 31.6 µM [falling, partial curve]; `COc1ccc(CCNc2ncnc3onc(C)c23)c(OC)c1`: 2 µM [falling, partial curve].
With `O=C(CSc1nnc(-c2cccnc2)n1Cc1ccco1)N1c2ccccc2Sc2ccccc21` the figure was 39.8 µM [rising, single point] [measured here: IkB-luc green channel]; with `CCc1ccccc1NC(=O)c1ccc(F)c(S(=O)(=O)N2CCN(c3cccc(Cl)c3)CC2)c1`, 39.8 µM [falling, single point].
With `Cc1ccc(O)c(-c2n[nH]c3c2C(c2ccc(F)cc2)N(Cc2ccco2)C3=O)c1` (centres undefined) the figure was 31.6 µM [falling, single point].
In the case of `Cc1c(O)cccc1C(=O)N[C@@H](CSc1ccccc1)[C@H](O)CN1C[C@H]2CCCC[C@H]2C[C@H]1C(=O)NC(C)(C)C`, the AC50 was 15.8 µM [falling, partial curve].
Next, `CCOC(=O)c1cnc2ccc(OCC)cc2c1Nc1ccc(OCc2ccccc2Cl)cc1`: 6.31 µM [falling, partial curve]; `Cc1cccc(CNC(=O)CN2C(=O)CSc3c2c(C)nn3-c2ccccc2)c1`: 20 µM [falling, partial curve]; `CC(=O)c1cc(-c2ccc(F)cc2)n(CCC(=O)Nc2nc3ccc(C)cc3s2)c1C`: 0.794 µM [rising, full curve].
Next, `Cc1cccc(-c2nc(CN3CCCC(C(=O)NC4CCCCC4)C3)c(C)o2)c1` (centres undefined): 31.6 µM [falling, partial curve]; `Cc1ccc(C(=O)N2CCC(C)CC2)cc1NC(=O)c1nsc2ccccc12`: 25.1 µM [falling, partial curve]; `COc1ccc(NC(=O)N(CCN2CCCC2)Cc2cc3cc(OC)c(OC)cc3[nH]c2=O)cc1`: 2.51 µM [rising, partial curve] [measured here: IkB-luc green channel].
